In assay [1] the target is T1, human Twisted gastrulation (residues Cys26-Phe223) (human) (UniProt Q9GZX9).
T1 sequence: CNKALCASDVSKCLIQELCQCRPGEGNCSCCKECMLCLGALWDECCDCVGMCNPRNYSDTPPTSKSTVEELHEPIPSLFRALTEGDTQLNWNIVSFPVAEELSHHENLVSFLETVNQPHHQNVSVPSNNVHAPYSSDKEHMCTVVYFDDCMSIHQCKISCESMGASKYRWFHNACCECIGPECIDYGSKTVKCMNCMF
Put plainly: SPR.

The chains behind the UniProt entries cited, without tags or fusion partners. Where a name states a change or a piece, a line headed by the entry shows the natural chain unless it says otherwise. Residues count along the entry.
UniProt P36894, 24-152: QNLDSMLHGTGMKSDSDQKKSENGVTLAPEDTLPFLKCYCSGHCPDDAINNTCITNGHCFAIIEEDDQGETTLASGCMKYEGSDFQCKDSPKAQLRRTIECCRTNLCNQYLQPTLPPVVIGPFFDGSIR

The target of assay [2] is T2, Drosophila Tsg truncation (Met1-Glu208) lacking the tail, with ALFA tag (Drosophila) (UniProt P54356).
T2 sequence: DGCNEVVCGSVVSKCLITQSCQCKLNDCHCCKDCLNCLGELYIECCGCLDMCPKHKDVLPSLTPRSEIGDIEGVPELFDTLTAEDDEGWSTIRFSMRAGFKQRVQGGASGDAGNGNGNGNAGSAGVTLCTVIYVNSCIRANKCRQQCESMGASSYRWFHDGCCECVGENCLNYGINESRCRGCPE
Briefly: co-IP.

The target in assay [3] is T3, Drosophila Twisted gastrulation Leu100Ala with C-terminal ALFA tag (Drosophila) (UniProt P54356).
T3 sequence: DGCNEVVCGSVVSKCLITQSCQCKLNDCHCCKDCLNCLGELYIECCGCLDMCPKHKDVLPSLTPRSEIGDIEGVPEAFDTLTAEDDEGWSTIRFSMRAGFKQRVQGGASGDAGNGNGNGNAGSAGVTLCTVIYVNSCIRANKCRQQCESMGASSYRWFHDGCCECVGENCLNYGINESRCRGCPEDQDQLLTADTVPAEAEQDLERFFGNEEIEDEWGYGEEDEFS
Put plainly: co-IP.

For assay [4], the target named is T4, Drosophila Twisted gastrulation with C-terminal ALFA tag (Drosophila) (UniProt P54356).
T4 sequence: T3 sequence with A77L
Put plainly: co-IP.

In assay [5] the target is T2, Drosophila Tsg truncation (Met1-Glu208) lacking the tail, with ALFA tag (Drosophila). Put plainly: co-IP. The source holds these as a separate data set.
Assay [6] has as its target T4, Drosophila Twisted gastrulation with C-terminal ALFA tag (Drosophila). Put plainly: co-IP. This is another data set of the same source.
The target in assay [7] is human BMPR1a-FC fusion protein (human) (UniProt P36894). Briefly: BLI. On the technique in general: In BLI a coated tip is dipped into the sample, and binding shifts an interference pattern.
Assay [8] concerns the target T5, human BMPR2-FC fusion protein (human) (UniProt Q13873).
T5 sequence: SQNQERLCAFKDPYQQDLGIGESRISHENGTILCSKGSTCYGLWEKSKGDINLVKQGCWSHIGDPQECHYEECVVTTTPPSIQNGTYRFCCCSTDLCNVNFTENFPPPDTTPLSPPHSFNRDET
Put plainly: BLI.

Drawing on article doi:10.1101/2024.07.08.602551, this text covers binding for four molecules.

Positions count from the first letter of the chain named. Where two headings read alike, the source gives them in different places. No constants are given. Whether binding was seen depends on the method and setting. For part of these data: Binding seen in cells or lysates may run through a third protein. Some results given as binding are weak or reduced against the parent protein; the word gives no strength. For part of these data: Sequences can lack the tags named with a protein.

As for “human BMPR1a-FC fusion protein (from UniProt P36894 24-152)”, the binding result in assay [1] is given as “no binding (tested: 1 µM)”.

B1: human BMPR2-FC fusion protein (Fc fusion, UniProt Q13873 27-150)
chain: T5 sequence
On to B1, for which, in assay [1], the binding result is “no binding (tested: 1 µM)”.

B2: Dpp:HA/Scw:Flag heterodimer (complex, UniProt P07713 457-588; P54631 278-400)
chain 1: DVSGGEGGGKGGRNKRQPRRPTRRKNHDDTCRRHSLYVDFSDVGWDDWIVAPLGYDAYYCHGKCPFPLADHFNSTNHAVVQTLVNNMNPGKVPKACCVPTQLDSVAMLYLNDQSTVVLKNYQEMTVVGCGCR
chain 2: AGGGSPPPPPPPPVDLYRPPQSCERLNFTVDFKELHMHNWVIAPKKFEAYFCGGGCNFPLGTKMNATNHAIVQTLMHLKQPHLPKPCCVPTVLGAITILRYLNEDIIDLTKYQKAVAKECGCH
For B2, the binding result in assay [2], in assay [3], in assay [4], in assay [5] and in assay [6] was “binds” throughout.

B3: human Twisted gastrulation (residues Cys26-Phe223) (protein, UniProt Q9GZX9 26-223)
chain: T1 sequence
On to B3, for which the binding entry in assay [7] and in assay [8] was “no binding (tested: 1 µM)” in each case.
